According to PubChem BioAssay AID686952 (The Scripps Research Institute Molecular Screening Center, 2013):
The entries are a selection whose mix differs from that of the whole data set. Activity calls are given as the source filed them.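 How the source made its calls: active means activation above the all-compound mean plus 3 SD, ignoring values outside control-based bounds (cut at about 4.8% in these data); inactive means the rest.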

Assay: apparent activators from fluorescence artefacts, no enzyme – biochemical, fluorescence intensity, high throughput, artefact control for kallikrein-7 zymogen activator project (AID 686952);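 further: value is the 4 h activation minus the activation read at time zero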
Conditions: EDANS-DABCYL substrate fluorescence interference, 4 h, at 7 µM, active compounds read high, solvent 0%, active enzyme control 100%

SMILES	activation
Oc1ccc2ccccc2c1CNc1cnc2ccccc2c1	active: 68.7%
COC(=O)COc1ccc2cc(-c3ccc(OC)cc3)c(=O)oc2c1	active: 73.2%
